Reference: patent US6548048 (dated 2003)

Key:
[1] = general procedure: Fmoc solid-phase peptide synthesis; Fmoc-Glu(OtBu)-Wang resin; HBTU (HATU for Hds and PEG2000); conditions: whole synthesis
[2] = general procedure: Fmoc solid-phase peptide synthesis; Fmoc-Lys(Boc)-Wang resin; HBTU (HATU for Hds and PEG2000); conditions: whole synthesis, scale 0.25 mmol
[3] = general procedure: Fmoc solid-phase peptide synthesis; Rink amide AM resin; HBTU (HATU for Hds and PEG2000); conditions: whole synthesis, scale 0.25 mmol
[4] = general procedure: Fmoc solid-phase peptide synthesis; Fmoc-amino acid-Wang resin or Rink amide resin; HBTU (HATU for Hds and PEG2000); conditions: whole synthesis, scale 0.25 mmol
[5] = general procedure: Fmoc solid-phase peptide synthesis; Rink amide resin; HBTU (HATU for Hds and PEG2000); conditions: whole synthesis
[6] = general procedure: Fmoc solid-phase peptide synthesis; Fmoc-Cys(Trt)-Wang resin; HBTU (HATU for Hds and PEG2000); conditions: whole synthesis, scale 0.25 mmol

Palmitoyl-AKAKAEAEAKAKAEAE-OH
crude mass ([1]; scale 0.25 mmol): 300 mg

Palmitoyl-AEAEAKAKAEAEAKAK-OH
crude mass [2]: 300 mg

Palmitoyl-Dpr(Palmitoyl)-Arg-Arg-Lys(PEG2000)—NH2
crude mass [3]: 27 mg

N-α-Palmitoyl-N-ε-palmitoyl-lysinyl-glutamyl-glutamyl-glutamyl-glutamic Acid
crude mass ([1]; scale 0.25 mmol): 200 mg | isolated mass [4]: 30 mg

N-α-Palmitoyl-N-ε-palmitoyl-lysinyl-lysinyl-lysinyl-lysinyl-lysinyl-tyrosinyl-tyrosine Amide
crude mass ([5]; scale 0.2 mmol): 300 mg

Palmitoyl-K(Palmitoyl)KK[Ahx]C-OH
crude mass [6]: 250 mg

Palmitoyl-K(Palmitoyl)KK[Ahx]KRKRKR-NH2
crude mass ([5]; scale 0.25 mmol): 150 mg

Palmitoyl-[Dap](Palmitoyl)RRK-NH2
isolated mass [4]: 5 mg | crude mass ([5]; scale 0.25 mmol): 50 mg

N-α-Palmitoyl-N-ε-palmitoyl-lysinyl-lysinyl-lysinyl-lysinyl-lysine
crude mass [2]: 200 mg

N-β-PEG2000-Dpr-Lys(Hds)-Lys-Lys(Hds)-Glu-OH
crude mass ([1]; scale 0.2 mmol): 500 mg

Behenic Acid (Beh)-Beh-Asp-Ala-Asp-Ala-Dpr-Ala-Dpr-NH
isolated mass [4]: 6 mg | crude mass ([5]; scale 0.25 mmol): 150 mg

Non-standard residues stand in square brackets, D forms with d. *: point of attachment. Palmitoyl = CCCCCCCCCCCCCCCC(=O)*; Dap = NC[C@H](N)C(=O)O; Ahx = NCCCCCC(=O)O
